According to PubChem BioAssay AID485314 (National Center for Advancing Translational Sciences (NCATS), 2010):
The campaign covered roughly 340,000 compounds. About 4,500 (1.3%) were called active. The shares of active, inactive and inconclusive entries below differ from those in the screen. Calls come from the whole dose curve; as a rule, active = well fitted inhibition curve with a large enough effect; inconclusive = small, poorly fitted or top-dose-only effect, or another doubt; inactive = no such curve, though single readings can be large or run the other way. Potencies of inconclusive entries are doubtful fits and often do not repeat.
% is set by controls: 0 for no effect and ±100 for the full control effect; potency is the fitted concentration of half-maximal effect.

These compounds were tested against DNA polymerase beta (Homo sapiens) (UniProt P06746) (assay: qHTS Assay for Inhibitors of DNA Polymerase Beta). Conditions: Pol beta primer extension/strand displacement, fluorescence kinetic; activity change, negative = inhibition: at 114 µM (top of the series).
Method in brief: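 Pol beta (10 nM) and compounds were preincubated 15 min at room temperature, then 50 nM substrate (final) started primer extension/strand displacement. Reads were taken at 0 and 10 min; concentration-response data were fitted to a four-parameter Hill equation.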
`COc1ccc(Cn2c(-c3ccc(C)cc3)nc3c(c(=O)c4ccccc4n3C)c2=O)cc1` was tested, and the Potency was inconclusive: 17.8 µM [inhibitor, full curve].
In the case of `Nc1ccc(-c2nc3ccc(-c4nc5ccc(N)cc5[nH]4)cc3[nH]2)cc1`, the Potency is reported as active: 1.41 µM.
`O=C(COC(=O)c1ccc(S(=O)(=O)NCc2ccco2)cc1)NCCC1=CCCCC1` was tested, and the Potency was active: 44.7 µM.
With `Cc1cccc(C(=O)NCC(c2ccc3c(c2)OCO3)N2CCN(c3ccccc3F)CC2)c1` (stereo not drawn) the Potency was inconclusive: 8.91 µM [inhibitor, partial curve].
For `COC(=O)c1ccc(COc2ccccc2/C=N/NS(=O)(=O)c2ccccc2)cc1`, the activity change, negative = inhibition was inconclusive: -33.3% [inhibitor].
In the case of `COc1cc(NC(=O)c2cc(-c3ccco3)on2)cc(OC)c1OC`, the Potency is reported as “inactive”.
For `COc1ccc(C(=O)/C=C/c2ccc(-c3ccccc3)cc2)cc1CSCC(=O)O`, the Potency was “inactive”.
`CCc1ccccc1NC(=O)CSC1=C(C#N)C(c2ccc3c(c2)OCO3)C2=C(CCCC2=O)N1` (stereo not drawn) was tested, and the Potency was active: 22.4 µM.
`COc1cc(/C=C2\SC(=O)N(CC(=O)Nc3ccc(C)cc3)C2=O)cc(Cl)c1OCC(=O)O` was tested, and the Potency was active: 50.1 µM.
`c1ccc(-c2nc(-c3ccccn3)nc(-c3ccccn3)n2)nc1` was tested, and the activity change, negative = inhibition was inconclusive: -62.3% [inhibitor].
For `Cc1nn(CC(=O)NC2CCCCC2)c(=O)c2cc3cc(F)ccc3n12`, the Potency was “inactive”.
For `Oc1cccc(/C=N/N2CCCCC2)c1O`, the Potency was inconclusive: 50.1 µM [inhibitor, partial curve, poor fit].
In the case of `COc1cccc(OCCn2c(C)c(/C=N/n3cnnc3)c3ccccc32)c1`, the Potency is reported as inconclusive: 79.4 µM [inhibitor, single point].
In the case of `CCOc1ccccc1Nc1nc(-c2cccc(Cl)c2)c2c(n1)-c1ccccc1OC2`, the Potency is reported as active: 39.8 µM.
For `CCOC(=O)CSc1nc2ccc(NC(=O)c3ccc(F)cc3)cc2s1`, the Potency was “inactive”.
`CN(C)c1ccc(/C=C/C(=O)c2cccc(Br)c2)cc1` was tested, and the Potency was inconclusive: 35.5 µM [inhibitor, full curve, poor fit].
For `Cc1cc(C)c(C#N)c(SCC(=O)OC2CCCCC2)n1`, the Potency was inconclusive: 5.01 µM [inhibitor, full curve, poor fit].
In the case of `COc1ccc(N2C(=O)CCC(C(=O)O)C2c2ccccc2OC)cc1` (stereo not drawn), the Potency is reported as “inactive”.
With `O=C(NC(=S)NCc1cccnc1)c1cccc2ccccc12` the Potency was inconclusive: 63.1 µM [inhibitor, single point].
In the case of `Clc1nc(Cl)nc(-c2cn(-c3ccccc3)c3ccccc23)n1`, the Potency is reported as active: 20 µM.
With `COc1ccccc1/C=C/C(=O)NC(=S)NCC1CCCO1` (stereo not drawn) the Potency was “inactive”.
For `CCOc1cccc(/C(O)=C2/C(=O)C(=O)N(CCOC)C2c2ccco2)c1` (stereo not drawn), the Potency was active: 79.4 µM.
With `CC(NC(=O)C(C)N1CCN(Cc2ccccc2)CC1)c1ccc(F)cc1` (stereo not drawn) the Potency was inconclusive: 89.1 µM [inhibitor, single point].
In the case of `CC(Sc1ccsc1[N+](=O)[O-])C(=O)NCc1ccco1` (stereo not drawn), the Potency is reported as active: 22.4 µM.
For `NS(=O)(=O)c1ccc(NC(=S)NC(=O)c2ccc(Br)o2)cc1`, the Potency was inconclusive: 1.26 µM [inhibitor, full curve, poor fit].
In the case of `COc1ccc(NC(=O)c2ccc3c(=O)n4nc(Nc5cc(C)ccc5C)sc4nc3c2)cc1`, the Potency is reported as “inactive”.
With `CCN(CCCNC(=O)CCCn1c(=O)[nH]c2ccccc2c1=O)c1cccc(C)c1` the Potency was “inactive”.
With `COc1ccc(S(=O)(=O)CC(=O)c2cc3cc(Br)ccc3oc2=O)cc1` the Potency was active: 10 µM.
`O=C(O)c1cnn(-c2ccccc2)c1C(F)(F)F` was tested, and the Potency was inconclusive: 89.1 µM [inhibitor, single point].
`COc1ccccc1NC(=O)CCNS(=O)(=O)c1ccc2c(c1)CCN2C(C)=O` was tested, and the Potency was inconclusive: 39.8 µM [inhibitor, single point].
For `CCOC(=O)C1(CC2CC2)CCN(C(=O)c2ocnc2C)CC1`, the Potency was inconclusive: 7.94 µM [inhibitor, full curve, poor fit].
`O=C(COC(=O)c1n[nH]c2ccccc12)NC(=O)NC12CC3CC(CC(C3)C1)C2` was tested, and the Potency was active: 35.5 µM.
For `COc1ccccc1NC(=O)CCn1cnc2ccccc2c1=O`, the Potency was inconclusive: 15.8 µM [inhibitor, full curve].
For `CCOc1ccccc1CNC(=O)c1cc2c(=O)n(Cc3ccccc3)ccc2nc1C`, the Potency was active: 25.1 µM.
`CN(C(=O)c1cc2c(=O)oc3ccccc3c2s1)c1ccc(F)cc1` was tested, and the Potency was inconclusive: 100 µM [inhibitor, single point].
`CC(=O)c1cnc2c(-c3ccccc3)c(C(F)(F)F)nn2c1C` was tested, and the Potency was inconclusive: 100 µM [inhibitor, partial curve, poor fit].
In the case of `CSc1ccc(NC(=O)Nc2cccn(Cc3ccccc3)c2=O)cc1`, the Potency is reported as inconclusive: 79.4 µM [inhibitor, single point].
With `O=C(O)CN1C(=O)/C(=C\c2ccccc2OCc2ccc(Cl)cc2)SC1=S` the Potency was inconclusive: 25.1 µM [inhibitor, single point].
With `CC(C)c1ccc(NC(=O)CSC2=Nc3ccccc3C3=NC(CC(=O)NCc4ccc(F)cc4)C(=O)N23)cc1` (stereo not drawn) the Potency was “inactive”.
In the case of `COc1ccc(CNC(=O)c2ccc3c(c2)N(Cc2cccc(Cl)c2)C(=O)c2ccccc2S3)c(OC)c1`, the Potency is reported as “inactive”.
`CCc1ccc2[nH]c3nc(N/N=C/c4ccc(O)cc4O)nnc3c2c1` was tested, and the Potency was inconclusive: 10 µM [inhibitor, full curve].
`CC1CCN(S(=O)(=O)c2ccc3c(c2)N(CC(=O)NCCCN2CCCCC2C)C(=O)CS3)CC1` (stereo not drawn) was tested, and the Potency was inconclusive: 89.1 µM [inhibitor, single point].
`CCCCCOC(=O)CSc1nc2c(c(=O)[nH]c(=O)n2C)n1CCc1ccccc1` was tested, and the Potency was inconclusive: 0.398 µM [inhibitor, full curve, poor fit].
For `C=CCC1(Cl)C(=O)C(Cl)=C(N2CCOCC2)C1(OC)OC` (stereo not drawn), the Potency was inconclusive: 31.6 µM [inhibitor, partial curve].
With `O=C(NNC(=S)NC(=O)c1ccccc1[N+](=O)[O-])c1ccc(Cl)cc1Cl` the Potency was inconclusive: 39.8 µM [inhibitor, single point].
For `CCCCCCn1c(=O)[nH]c2nc3cc(N)c(C)cc3nc2c1=O`, the Potency was inconclusive: 15.8 µM [inhibitor, full curve].
For `O=C(Cn1cncc1-c1ccc([N+](=O)[O-])cc1)Nc1cccc2ccccc12`, the Potency was inconclusive: 70.8 µM [inhibitor, partial curve].
With `CC(C)(C)n1nnnc1SCC(=O)Nc1nn(-c2ccccc2)nc1C(N)=O` the Potency was inconclusive: 2 µM [inhibitor, full curve, poor fit].
For `O=C(NCc1ccco1)/C(=C\c1ccco1)NC(=O)c1ccc(Br)o1`, the Potency was inconclusive: 20 µM [inhibitor, full curve].
For `Cc1ccc2oc(-c3cc(NC(=O)c4ncn[nH]4)ccc3O)nc2c1`, the Potency was inconclusive: 56.2 µM [inhibitor, partial curve].
`COc1ccc2c(C)cc(SCc3c(C)noc3C)nc2c1` was tested, and the Potency was inconclusive: 31.6 µM [inhibitor, partial curve, poor fit].
For `O=C(NCc1ccc(F)cc1)c1ccc(CSc2nc3ccncc3n2Cc2ccc(F)cc2)cc1`, the Potency was “inactive”.
`Cc1cc(C(=O)Cn2ncc(Cl)c(Cl)c2=O)c(C)n1CC(F)(F)F` was tested, and the Potency was “inactive”.
`Cc1ccsc1/C=N/NC(=O)c1c[nH]c2ccccc12` was tested, and the Potency was inconclusive: 79.4 µM [inhibitor, single point].
In the case of `COc1ccc(NC(=O)CN(C)S(=O)(=O)c2ccc3c(c2)CC(C)N3C(C)=O)c(OC)c1` (stereo not drawn), the activity change, negative = inhibition is reported as inconclusive: -45.2% [inhibitor].
`COc1ccc(-c2[nH]c(-c3ccc(C)cc3)nc2SCC(=O)NCc2ccco2)cc1OC` was tested, and the Potency was active: 79.4 µM.
With `Cc1ccc(C(=O)c2sc(Nc3ccccc3F)c(S(=O)(=O)c3ccccc3)c2N)c(C)c1` the Potency was “inactive”.
With `Cc1ccc(C(=O)Nc2ccc(C(=O)O)cc2)cc1S(=O)(=O)Nc1cccc([N+](=O)[O-])c1` the Potency was inconclusive: 89.1 µM [inhibitor, single point].
`CC1(C)CC[C@]2(C(=O)O)CC[C@]3(C)C(=CCC4[C@@]5(C)CC[C@H](O)C(C)(C)C5CC[C@]43C)C2C1` (stereo partly drawn) was tested, and the Potency was inconclusive: 50.1 µM [inhibitor, partial curve, poor fit].
With `COc1ccc2oc(=N)c(C(=O)Nc3ccc(C)cc3)cc2c1` the Potency was inconclusive: 2.24 µM [inhibitor, full curve, poor fit].
`O=C(Nc1cc(S(=O)(=O)Nc2ccc(Cl)cc2)ccc1O)c1ccc(S(=O)(=O)N2CCCCCC2)cc1` was tested, and the Potency was active: 5.62 µM.
`Cc1ccc(CN2CC(C(=O)Nc3nnc(SCc4c(Cl)cccc4Cl)s3)CC2=O)cc1` (stereo not drawn) was tested, and the Potency was active: 12.6 µM.
With `CCCCn1cc(S(=O)(=O)c2ccc(CC)cc2)c(=O)c2cc(F)c(N3CCCC(C)C3)cc21` (stereo not drawn) the Potency was “inactive”.
`COc1ccc(S(=O)(=O)Oc2ccc3ccccc3c2)cc1` was tested, and the Potency was “inactive”.
`COc1ccccc1CCNC(=O)c1ccc(NC(=O)N2CC(C)Sc3ccccc32)cc1` (stereo not drawn) was tested, and the Potency was inconclusive: 22.4 µM [inhibitor, single point].
`CSc1cccc(NS(=O)(=O)c2ccc3[nH]cc(C(=O)N4CCCC4)c(=O)c3c2)c1` was tested, and the Potency was “inactive”.
`COc1ccc(CCNC(=O)c2cc(C(=O)c3cc(Cl)ccc3O)cn(CCc3ccc(OC)cc3)c2=O)cc1` was tested, and the Potency was inconclusive: 11.2 µM [inhibitor, partial curve, poor fit].
With `O=C(/C=C/c1ccc2c(c1)OCO2)NCCSCc1cccc(Cl)c1` the Potency was inconclusive: 22.4 µM [inhibitor, partial curve, poor fit].
